Source: patent US10633353B2, “Polymerizable compound, composition, polymer, optically anisotropic body, liquid crystal display element, and organic EL display” (DIC Corporation, priority 2014, dated 2020)

Experiment: Alignment property of the optical film
Conditions: optical film; visual inspection and polarized light microscope

SMILES	alignment property
C=CC(=O)OCCCCCCOc1ccc(C(=O)Oc2ccc(OC(=O)c3ccc(OCCCCCCOC(=O)C=C)cc3)c3sc(-c4ccc([N+](=O)[O-])cc4)nc23)cc1 [r-1, reference compound]	C (Although the degree of the orientation of the optical film which was visually confirmed was lower than those defined in A and B, the inspection of the optical film with a polarized light microscope confirmed that the orientation area was 60% to 90%.)
C=CC(=O)OCCCCCCOC1CCC(OC(=O)C2CCC(C(=O)Oc3ccc(OC(=O)C4CCC(C(=O)OC5CCC(OCCCCCCOC(=O)C=C)CC5)CC4)c4c3SC(=C(C#N)C(=O)OCC)S4)CC2)CC1 (centres unmarked) [r-3, reference compound]	C (Although the degree of the orientation of the optical film which was visually confirmed was lower than those defined in A and B, the inspection of the optical film with a polarized light microscope confirmed that the orientation area was 60% to 90%.)

Same assay, conditions: summary in words

SMILES	alignment property
C=CC(=O)OCCCOc1ccc(C(=O)Oc2ccc3cc(C(=O)Oc4ccc(OCCCOC(=O)C=C)cc4/C=N/Nc4nc5ccccc5s4)ccc3c2)cc1 [1-eh-74]	improved
C=CC(=O)OCCCOc1ccc(C(=O)Oc2ccc(C(=O)Oc3ccc(OCCCOC(=O)C=C)cc3/C=N/Nc3nc4ccccc4s3)cc2)cc1 [1-eh-71]	improved
C=CC(=O)OCCCCCCOc1ccc(OC(=O)c2ccc(OC(=O)c3ccc4cc(OCCCCCCOC(=O)C=C)ccc4c3)cc2)c(/C=N/Nc2nc3ccccc3s2)c1 [1-eh-75]	improved

Experiment: Optical property of the optical film (retardation, Re(450)/Re(550))
Conditions: Re(450)/Re(550) of the optical film, RET-100

SMILES	Optical property
C=CC(=O)OCCCOc1ccc(C(=O)Oc2ccc3cc(C(=O)Oc4ccc(OCCCOC(=O)C=C)cc4/C=N/Nc4nc5ccccc5s4)ccc3c2)cc1 [1-eh-74]	A (Re(450)/Re(550)≤0.85)
C=CC(=O)OCCCOc1ccc(C(=O)Oc2ccc(C(=O)Oc3ccc(OCCCOC(=O)C=C)cc3/C=N/Nc3nc4ccccc4s3)cc2)cc1 [1-eh-71]	A (Re(450)/Re(550)≤0.85)
C=CC(=O)OCCCCCCOc1ccc(OC(=O)c2ccc(OC(=O)c3ccc4cc(OCCCCCCOC(=O)C=C)ccc4c3)cc2)c(/C=N/Nc2nc3ccccc3s2)c1 [1-eh-75]	A (Re(450)/Re(550)≤0.85)
C=CC(=O)OCCCCCCOc1ccc(C(=O)Oc2ccc(OC(=O)c3ccc(OCCCCCCOC(=O)C=C)cc3)c3sc(-c4ccc([N+](=O)[O-])cc4)nc23)cc1 [r-1, reference compound]	C (0.95<Re(450)/Re(550)≤1.05)
C=CC(=O)OCCCCCCOC1CCC(OC(=O)C2CCC(C(=O)Oc3ccc(OC(=O)C4CCC(C(=O)OC5CCC(OCCCCCCOC(=O)C=C)CC5)CC4)c4c3SC(=C(C#N)C(=O)OCC)S4)CC2)CC1 (centres unmarked) [r-3, reference compound]	C (0.95<Re(450)/Re(550)≤1.05)
C=CC(=O)OCCCCCCOc1ccc(CCC(=O)Oc2ccc(OC(=O)CCc3ccc(OCCCCCCOC(=O)C=C)cc3)c(/C=N/Nc3nc4ccccc4s3)c2)cc1 [1-c-51]	A (Re(450)/Re(550)≤0.85)
C=CC(=O)OCCCCOc1ccc(CCC(=O)Oc2ccc(OC(=O)CCc3ccc(OCCCCOC(=O)C=C)cc3)c(/C=N/Nc3nc4ccccc4s3)c2)cc1 [1-c-50]	A (Re(450)/Re(550)≤0.85)
C=CC(=O)OCCCCCCOc1ccc(OC(=O)C2CCC(COc3ccc(OCC4CCC(C(=O)Oc5ccc(OCCCCCCOC(=O)C=C)cc5)CC4)c(/C=N/N(C(=O)C=C)c4nc5ccccc5s4)c3)CC2)cc1 (centres unmarked) [1-cmn-108]	A (Re(450)/Re(550)≤0.85)
C=CC(=O)OCCCCCCOc1ccc(C(=O)Oc2ccc(OC(=O)c3ccc(OCCCCCCOC(=O)C=C)cc3)c(/C=N/N(CCCCCC)c3nc4ccccc4s3)c2)cc1 [1-cn-83]	A (Re(450)/Re(550)≤0.85)
C=CC(=O)OCCCCCCOC1CCC(C(=O)Oc2ccc(OC(=O)C3CCC(OCCCCCCOC(=O)C=C)CC3)c(/C=N/Nc3nc4ccccc4s3)c2)CC1 (centres unmarked) [1-f-19]	A (Re(450)/Re(550)≤0.85)
C=CC(=O)OCCCCCCOc1ccc(C(=O)OCCc2ccc(OC(=O)c3ccc(OCCCCCCOC(=O)C=C)cc3)c(/C=N/Nc3nc4ccccc4s3)c2)cc1 [1-c-1]	A (Re(450)/Re(550)≤0.85)
C=CC(=O)OCCCCCOc1ccc(C(=O)OCCc2ccc(OC(=O)c3ccc(OCCCCCOC(=O)C=C)cc3)c(/C=N/Nc3nc4ccccc4s3)c2)cc1 [1-c-4]	A (Re(450)/Re(550)≤0.85)
C=CC(=O)OCCCCCCOc1ccc(C(=O)OCCc2ccc(OC(=O)c3ccc(OCCCCCCOC(=O)C=C)cc3)c(/C=N/Nc3ccc4ccccc4c3)c2)cc1 [1-c-32]	A (Re(450)/Re(550)≤0.85)
C=CC(=O)OCCCOc1ccc(C(=O)OCCc2ccc(CCOC(=O)c3ccc(OCCCOC(=O)C=C)cc3)c(/C=N/N(C(=O)C=C)c3nc(-c4ccc5ccccc5c4)cs3)c2)cc1 [1-c-41]	A (Re(450)/Re(550)≤0.85)
C=CC(=O)OCCCOc1ccc(C(=O)OCCc2ccc(OC(=O)c3ccc(OCCCOC(=O)C=C)cc3)c(/C=N/Nc3nc4cc(C#N)ccc4s3)c2)cc1 [1-c-25]	A (Re(450)/Re(550)≤0.85)
C=CC(=O)OCCCCCCOc1ccc(OC(=O)C2CCC(COc3ccc(OCC4CCC(C(=O)Oc5ccc(OCCCCCCOC(=O)C=C)cc5)CC4)c(/C=N/Nc4nc5ccccc5s4)c3)CC2)cc1 (centres unmarked) [1-cm-88]	A (Re(450)/Re(550)≤0.85)
C=CC(=O)OCCCOc1ccc(C(=O)OCCc2ccc(CCOC(=O)c3ccc(OCCCOC(=O)C=C)cc3)c(/C=N/Nc3nc4ccccc4s3)c2)cc1 [1-c-9]	A (Re(450)/Re(550)≤0.85)
C=CC(=O)OCCCCCCOc1ccc(C(=O)OCCc2ccc(OC(=O)c3ccc(OCCCCCCOC(=O)C=C)cc3)c(/C=N/Nc3ccc(C#Cc4ccccc4)cc3)c2)cc1 [1-c-31]	A (Re(450)/Re(550)≤0.85)
C=CC(=O)OCCCOc1ccc(OC(=O)C2CCC(COc3ccc(OCC4CCC(C(=O)Oc5ccc(OCCCOC(=O)C=C)cc5)CC4)c(/C=N/N(C(=O)C=C)c4nc5ccccc5s4)c3)CC2)cc1 (centres unmarked) [1-cmn-107]	A (Re(450)/Re(550)≤0.85)
C=CC(=O)OCCCCOC(=O)C1CCC(C(=O)OC2CCC(C(=O)Oc3ccc(OC(=O)C4CCC(OC(=O)C5CCC(C(=O)OCCCCOC(=O)C=C)CC5)CC4)c(/C=N/N(CCCC)c4nc5ccccc5s4)c3)CC2)CC1 (centres unmarked) [1-f-99]	A (Re(450)/Re(550)≤0.85)
C=CC(=O)OCCCCOC(=O)/C=C/c1ccc(C(=O)Oc2ccc(OC(=O)c3ccc(/C=C/C(=O)OCCCCOC(=O)C=C)cc3)c(/C=N/N(c3ccccc3)c3ccccc3)c2)cc1 [1-j-64]	A (Re(450)/Re(550)≤0.85)

SMILES	Optical property
C=CC(=O)OCCCCOC(=O)C1CCC(OC(=O)C2CCC(C(=O)Oc3ccc(OC(=O)C4CCC(C(=O)OC5CCC(C(=O)OCCCCOC(=O)C=C)CC5)CC4)c(/C=N/Nc4nc5ccccc5s4)c3)CC2)CC1 (centres unmarked) [1-f-95]	A (Re(450)/Re(550)≤0.85)
C=CC(=O)OCCCCCCOc1ccc(/C=C/C(=O)Oc2ccc(OC(=O)/C=C/c3ccc(OCCCCCCOC(=O)C=C)cc3)c(/C=N/Nc3nc4ccccc4s3)c2)cc1 [1-c-43]	A (Re(450)/Re(550)≤0.85)
C=CC(=O)OCCCOC(=O)/C=C/c1ccc(CCC(=O)Oc2ccc(OC(=O)CCc3ccc(/C=C/C(=O)OCCCOC(=O)C=C)cc3)c(/C=N/Nc3nc4ccccc4s3)c2)cc1 [1-cj-63]	A (Re(450)/Re(550)≤0.85)
C=CC(=O)OCCCCOC(=O)C1CCC(C(=O)OC2CCC(C(=O)Oc3ccc(OC(=O)C4CCC(OC(=O)C5CCC(C(=O)OCCCCOC(=O)C=C)CC5)CC4)c(/C=N/N(CCC)c4nc5ccccc5s4)c3)CC2)CC1 (centres unmarked) [1-f-100]	A (Re(450)/Re(550)≤0.85)
C=CC(=O)OCCCCOC(=O)C1CCC(C(=O)OC2CCC(C(=O)Oc3ccc(OC(=O)C4CCC(OC(=O)C5CCC(C(=O)OCCCCOC(=O)C=C)CC5)CC4)c(/C=N/N(CCCCC)c4nc5ccccc5s4)c3)CC2)CC1 (centres unmarked) [1-f-98]	A (Re(450)/Re(550)≤0.85)
C=CC(=O)OCCOCCOCCOc1ccc(OC(=O)C2CCC(COc3ccc(OCC4CCC(C(=O)Oc5ccc(OCCOCCOCCOC(=O)C=C)cc5)CC4)c(/C=N/N(CCCCCC)c4nc5ccccc5s4)c3)CC2)cc1 (centres unmarked) [1-cmn-90]	A (Re(450)/Re(550)≤0.85)
C=CC(=O)OCCCCOc1ccc(C(=O)OCCc2ccc(OC(=O)c3ccc(OCCCCOC(=O)CC)cc3)c(/C=N/Nc3cc4ccccc4[nH]3)c2)cc1 [1-c-28]	A (Re(450)/Re(550)≤0.85)
C=CC(=O)OCCCCCCOC(=O)/C=C/c1ccc(CCC(=O)Oc2ccc(OC(=O)CCc3ccc(/C=C/C(=O)OCCCCCCOC(=O)C=C)cc3)c(/C=N/Nc3nc4ccccc4s3)c2)cc1 [1-cj-60]	A (Re(450)/Re(550)≤0.85)
C=CC(=O)OCCCCOc1ccc(C(=O)OCCc2ccc(CCOC(=O)c3ccc(OCCCCOC(=O)C=C)cc3)c(/C=N/Nc3nc4ccccc4s3)c2)cc1 [1-c-10]	A (Re(450)/Re(550)≤0.85)
C=CC(=O)OCCCOC(=O)/C=C/c1ccc(C(=O)Oc2ccc(OC(=O)c3ccc(/C=C/C(=O)OCCCOC(=O)C=C)cc3OC)c(/C=N/Nc3nc4ccccc4s3)c2)c(OC)c1 [1-j-57]	A (Re(450)/Re(550)≤0.85)
C=CC(=O)OCCCCCOc1ccc(C(=O)OCCc2ccc(OC(=O)c3ccc(OCCCCCOC(=O)C=C)cc3)c(/C=N/Nc3nc4cc(O)c([N+](=O)[O-])cc4[nH]3)c2)cc1 [1-c-29]	A (Re(450)/Re(550)≤0.85)
C=CC(=O)OCCCCOc1ccc(C#Cc2ccc(C#Cc3ccc(OCCCCOC(=O)C=C)cc3)c(/C=N/Nc3nc4ccccc4s3)c2)cc1 [1-c-66]	A (Re(450)/Re(550)≤0.85)
C=C(C)C(=O)OCCCCCOc1ccc(C(=O)OCCc2ccc(OC(=O)c3ccc(OCCCCCOC(=O)C(=C)C)cc3)c(/C=N/Nc3nc4ccccc4s3)c2)cc1 [1-c-7]	A (Re(450)/Re(550)≤0.85)
C=CC(=O)OCCCCOC(=O)C1CCC(C(=O)OC2CCC(C(=O)Oc3ccc(OC(=O)C4CCC(OC(=O)C5CCC(C(=O)OCCCCOC(=O)C=C)CC5)CC4)c(/C=N/Nc4nc5ccccc5s4)c3)CC2)CC1 (centres unmarked) [1-f-20]	A (Re(450)/Re(550)≤0.85)
C=CC(=O)OCCCCCCOc1ccc(C(=O)OCCc2ccc(CCOC(=O)c3ccc(OCCCCCCOC(=O)C=C)cc3)c(/C=N/Nc3nc4ccccc4s3)c2)cc1 [1-c-12]	A (Re(450)/Re(550)≤0.85)
C=CC(=O)OCCCCCOc1ccc(OC(=O)C2CCC(C(=O)OCCc3ccc(OC(=O)C4CCC(C(=O)Oc5ccc(OCCCCCOC(=O)C=C)cc5)CC4)c(C=NNc4nc5ccccc5s4)c3)CC2)cc1 (centres unmarked) [1-c-15]	A (Re(450)/Re(550)≤0.85)
C=CC(=O)OCCCCCCOc1ccc(C(=O)Oc2ccc(C(=O)OCCc3ccc(OC(=O)c4ccc(OC(=O)c5ccc(OCCCCCCOC(=O)C=C)cc5)cc4)c(/C=N/Nc4nc5ccccc5s4)c3)cc2)cc1 [1-ch-79]	A (Re(450)/Re(550)≤0.85)
C=CC(=O)OCCCCCCOc1ccc(C(=O)Oc2ccc3cc(OCCCCCCOC(=O)C=C)ccc3c2/C=N/Nc2nc3ccccc3s2)cc1 [1-e-73]	A (Re(450)/Re(550)≤0.85)
C=CC(=O)OCCCOc1ccc(/C=C/C(=O)Oc2ccc(OC(=O)/C=C/c3ccc(OCCCOC(=O)C=C)cc3)c(/C=N/Nc3nc4ccccc4s3)c2)cc1 [1-c-44]	A (Re(450)/Re(550)≤0.85)
C=C(C)C(=O)OCCCCCCOc1ccc(C(=O)OCCc2ccc(OC(=O)c3ccc(OCCCCCCOC(=O)C(=C)C)cc3)c(/C=N/Nc3nc4ccccc4s3)c2)cc1 [1-c-8]	A (Re(450)/Re(550)≤0.85)
C=CC(=O)OCCCOc1ccc(CCC(=O)Oc2ccc(OC(=O)CCc3ccc(OCCCOC(=O)C=C)cc3)c(/C=N/Nc3nc4ccccc4s3)c2)cc1 [1-c-49]	A (Re(450)/Re(550)≤0.85)
